Measurements reported in PubChem BioAssay AID1259425 (University of Nebraska Medical Center, 2018).

- Assay: 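Find knockdowns that reproduce the gene expression pattern seen when KSR1 is lost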 (primary screen)
- Cells: HCT116 human colon cancer cells
- Reagent: siRNA pool against human genes, 50 nM siRNA
- Measurement: 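After 50 nM siRNA pool, branched-DNA assay measures six marker transcripts per well, minus blank, normalised to the geometric mean of two housekeeping transcripts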
- Scale: BNIP3L mRNA: higher = more BNIP3L transcript after knockdown
Here is one part, drawn at random, of about 14,000 reagents tested. Further read-outs or replicates are left out here. The record does not give: the time to read-out.

With DCTN6, how do the results read?
BNIP3L mRNA, set 1: 0.0826

What did the screen give for DYNC1I1?
BNIP3L mRNA, set 1: 0.148

What is on record for PPP1R14C?
BNIP3L mRNA, set 1: 0.0629

What did the screen give for CITED4?
BNIP3L mRNA, set 1: 0.126

Which result is listed for SLC17A7?
BNIP3L mRNA, set 1: 0.126

What is on record for OVGP1?
BNIP3L mRNA, set 1: 0.0823

What is on record for SMARCA1?
BNIP3L mRNA, set 1: 0.168

With IL12RB2, what does the deposit list?
BNIP3L mRNA, set 1: 0.0622

With ZNF304, what was measured?
BNIP3L mRNA, set 1: 0.136

For NFIB, what was measured?
BNIP3L mRNA, set 1: 0.0709

For ARL5A, how do the results read?
BNIP3L mRNA, set 1: 0.0594

How did the screen score GNG3?
BNIP3L mRNA, set 1: 0.138

With PTDSS1, what does the deposit list?
BNIP3L mRNA, set 1: 0.272

With HUWE1, what does the deposit list?
BNIP3L mRNA, set 1: 0.0782

With IDO1, what was measured?
BNIP3L mRNA, set 1: 0.0984

Laid out differently: entries from further up
{"gene knocked down": "DYNC1I1", "BNIP3L mRNA, set 1": 0.148}
{"gene knocked down": "PPP1R14C", "BNIP3L mRNA, set 1": 0.0629}
{"gene knocked down": "CITED4", "BNIP3L mRNA, set 1": 0.126}
{"gene knocked down": "SLC17A7", "BNIP3L mRNA, set 1": 0.126}

Further records follow:
With GZMB, what does the deposit list?
BNIP3L mRNA, set 1: 0.0753

For RAB8A, how do the results read?
BNIP3L mRNA, set 1: 0.0299

For XIAP, how do the results read?
BNIP3L mRNA, set 1: 0.0747

Which result is listed for ANKEF1?
BNIP3L mRNA, set 1: 0.0592

What is on record for TMEM158?
BNIP3L mRNA, set 1: 0.185

With PPP5C, how do the results read?
BNIP3L mRNA, set 1: 0.0857

What did the screen give for TECPR1?
BNIP3L mRNA, set 1: 0.102

For PRKCB, how do the results read?
BNIP3L mRNA, set 1: 0.17

With SI, how do the results read?
BNIP3L mRNA, set 1: 0.137

Which result is listed for FKBP1B?
BNIP3L mRNA, set 1: 0.085

With VCL, what does the deposit list?
BNIP3L mRNA, set 1: 0.0879

Which result is listed for MFSD11?
BNIP3L mRNA, set 1: 0.107

How did the screen score ALDOC?
BNIP3L mRNA, set 1: 0.0527
